Test results from patent publication US20250170183A1, “METHOD FOR ENRICHING MUSE CELLS AND OBTAINING EXOSOMES, MICROVESICLES OR THE SECRETOME THEREFROM” (priority 2022, published 2025).
Entries after “also recorded” stand apart in the source; their conditions may differ. At least one structure is not confirmed: it was looked up by name or label, or the drawing left a doubt.

Experiments:
[1] = tested on: Carrageenan-induced paw edema; assay: Carrageenan-induced paw edema model; assay type: in vivo, C57BL/6 mice; conditions: for paw thickness, multiple doses: 5 consecutive daily doses
[2] = tested on: IL-1β, IL-6, IL-10, and IFN-γ; assay: LPS-induced sepsis rodent model: cytokine measurements in plasma and lung (ProcartaPlex, Luminex); assay type: in vivo, BALB/C mice; conditions: plasma
[3] = 6 h to 24 h post LPS, rose in the PBS animals

Question: With `C[C@@H]1C[C@H]2[C@@H]3CCC4=CC(=O)C=C[C@]4(C)[C@@]3(F)[C@@H](O)C[C@]2(C)[C@@]1(O)C(=O)CO` [dexamethasone] as the compound, how does the “paw thickness, multiple doses” value ([1]; 1 day after the last dose, FIG. 9) read?
Answer: The value was “reduction in paw thickness”.

Question: What about the “paw thickness, multiple doses” value ([1]; 11 days (266 hours) after the last dose, FIG. 11) of the same compound?
Answer: Its value is “indistinguishable from each other”.

Question: What about the “paw thickness, immediate response” value ([1]; single i.p. dose, 1.5 hours after administration, FIG. 5) of the same compound?
Answer: Its value is “indistinguishable from the saline control”.

Question: And the “paw thickness, early response” value ([1]; single i.p. dose, 1 day after administration, FIG. 6)?
Answer: The value was “decrease of the inflammation; also recorded: marked reduction of paw thickness”.

Question: What about the “paw thickness, intermediate response” value ([1]; single i.p. dose, about 1 week after administration, FIG. 7) of the same compound?
Answer: The value was “further enhanced; also recorded: further reduction in paw thickness relative to the PBS treated control”.

Question: What about the “paw thickness, late response” value ([1]; single i.p. dose, about 2 weeks after administration, FIG. 8) of the same compound?
Answer: The value was “indistinguishable from the saline treated controls; also recorded: waned off”.

Question: And the “levels of IFN-gamma” value [2, 3]?
Answer: The value was “declined”.

Question: And the “levels of IL-1β” value [2, 3]?
Answer: Its value is “declined”.

Question: And the pro-inflammatory cytokines ([2]; 24 h post LPS induction, compared to the PBS treated group, FIG. 16)?
Answer: The pro-inflammatory cytokines was “reduced”.

Question: And the IL10 ([2]; from 6-24 h post LPS)?
Answer: Its IL10 is “reduced”.
